Results as given in PMC5706420.
Results are given in words; binding and its absence hold for the method and conditions named. Some binding calls cover weakened binding; strength is not graded here.

Amino acid sequences for entries named in this document (tags omitted). A change or cut given only in a name is not applied to a line headed by its entry. Residues count along the entry.
UniProt Q96EB6: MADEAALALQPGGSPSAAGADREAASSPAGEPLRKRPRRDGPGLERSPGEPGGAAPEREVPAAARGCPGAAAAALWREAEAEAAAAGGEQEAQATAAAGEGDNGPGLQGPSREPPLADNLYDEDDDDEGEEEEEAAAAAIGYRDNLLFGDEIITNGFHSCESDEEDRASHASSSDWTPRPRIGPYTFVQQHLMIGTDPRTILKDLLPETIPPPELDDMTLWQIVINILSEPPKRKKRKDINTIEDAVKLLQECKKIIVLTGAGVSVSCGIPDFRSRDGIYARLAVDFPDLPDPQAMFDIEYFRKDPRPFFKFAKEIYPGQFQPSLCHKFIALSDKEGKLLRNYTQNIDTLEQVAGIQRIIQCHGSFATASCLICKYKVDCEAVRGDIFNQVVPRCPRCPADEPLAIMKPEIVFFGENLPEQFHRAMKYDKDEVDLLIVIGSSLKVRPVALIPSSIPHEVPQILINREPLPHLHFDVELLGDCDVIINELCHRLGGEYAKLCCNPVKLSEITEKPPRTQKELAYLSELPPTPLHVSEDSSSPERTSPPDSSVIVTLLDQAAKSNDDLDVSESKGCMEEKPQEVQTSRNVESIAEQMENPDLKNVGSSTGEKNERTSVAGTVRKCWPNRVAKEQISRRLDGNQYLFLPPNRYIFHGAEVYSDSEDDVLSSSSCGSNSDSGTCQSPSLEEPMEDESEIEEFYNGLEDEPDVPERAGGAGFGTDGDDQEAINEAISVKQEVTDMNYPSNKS
Sirt1-6xHis AB fragment: residues 1-364 of Q96EB6
UniProt Q15796: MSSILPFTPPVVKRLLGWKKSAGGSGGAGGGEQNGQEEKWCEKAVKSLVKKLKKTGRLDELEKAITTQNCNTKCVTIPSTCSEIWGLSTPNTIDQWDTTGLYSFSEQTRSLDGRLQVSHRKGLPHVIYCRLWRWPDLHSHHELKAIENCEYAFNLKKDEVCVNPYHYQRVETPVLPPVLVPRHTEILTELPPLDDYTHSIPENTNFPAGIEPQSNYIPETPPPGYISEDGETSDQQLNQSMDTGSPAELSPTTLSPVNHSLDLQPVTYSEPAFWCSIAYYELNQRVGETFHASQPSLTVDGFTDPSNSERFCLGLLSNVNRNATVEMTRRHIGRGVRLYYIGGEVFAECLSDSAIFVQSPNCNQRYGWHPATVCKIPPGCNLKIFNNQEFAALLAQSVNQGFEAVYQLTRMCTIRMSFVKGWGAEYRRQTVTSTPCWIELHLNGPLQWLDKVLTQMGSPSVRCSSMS
UniProt P84022: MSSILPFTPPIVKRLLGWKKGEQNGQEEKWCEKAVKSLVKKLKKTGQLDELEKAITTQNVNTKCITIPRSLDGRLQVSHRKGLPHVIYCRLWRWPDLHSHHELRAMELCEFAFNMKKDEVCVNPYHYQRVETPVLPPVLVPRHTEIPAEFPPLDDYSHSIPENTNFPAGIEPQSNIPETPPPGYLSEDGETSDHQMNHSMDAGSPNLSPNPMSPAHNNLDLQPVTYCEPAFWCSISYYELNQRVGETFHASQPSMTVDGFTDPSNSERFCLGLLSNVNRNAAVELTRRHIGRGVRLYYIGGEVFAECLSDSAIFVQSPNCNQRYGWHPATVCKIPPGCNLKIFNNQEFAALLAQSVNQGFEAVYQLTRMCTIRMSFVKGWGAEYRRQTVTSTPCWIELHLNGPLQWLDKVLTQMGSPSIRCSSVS

What was measured:
[1] = target: Sirt1^H363Y, His-tagged (pull-down, data not shown) (human) (UniProt Q96EB6); test: pull-down; data not shown; Sirt1^H363Y in place of wild type Sirt1 with full length GST-Smads and GST-Smad2 fragments; both purified
[2] = target: Sirt1WT-6xHis (human) (UniProt Q96EB6); test: pull-down; 4 μg GST-fusion protein mixed with 20 μl (10-20 μg) resin-coupled Sirt1WT-6xHis in 400 μl 50 mM HEPES pH 7.2, 300 mM NaCl, 1% Triton X-100, 10% glycerol, BSA 0.2 mg/ml; 2 h at 4 °C; Western blot; both purified
[3] = target: Sirt1-6xHis AB fragment (human) (UniProt Q96EB6); test: pull-down; Flag-Smad2 affinity-purified from transfected HEK293T cells (FLAG peptide elution) added to resin-coupled Sirt1-6xHis or its 6xHis fragments; 2 h at 4 °C; Western blot; both purified

Row | binding [1] | binding [2] | binding [3] | Substance
1 | binds | binds |  | GST-Smad2 MH1 domain (from UniProt Q15796 10-176) (domain or fragment)
2 | binds weakly | binds weakly |  | GST-Smad2 MH2 domain (from UniProt Q15796 274-467) (domain or fragment)

The remaining lines, values behind:

Row | Substance | binding [1] | binding [2] | binding [3]
3 | full length GST-Smad2 (from UniProt Q15796 1-467) | binds |  | 
4 | Flag-Smad2 (from UniProt Q15796 1-467) |  |  | binds
5 | full length GST-Smad3 (from UniProt P84022 1-425) | binds | binds | 
